## Results of single-concentration screens

Sequences of proteins named here, by UniProt entry; tags and fusion partners are left off. Residues count along the entry.
UniProt Q4DA54, 1-478: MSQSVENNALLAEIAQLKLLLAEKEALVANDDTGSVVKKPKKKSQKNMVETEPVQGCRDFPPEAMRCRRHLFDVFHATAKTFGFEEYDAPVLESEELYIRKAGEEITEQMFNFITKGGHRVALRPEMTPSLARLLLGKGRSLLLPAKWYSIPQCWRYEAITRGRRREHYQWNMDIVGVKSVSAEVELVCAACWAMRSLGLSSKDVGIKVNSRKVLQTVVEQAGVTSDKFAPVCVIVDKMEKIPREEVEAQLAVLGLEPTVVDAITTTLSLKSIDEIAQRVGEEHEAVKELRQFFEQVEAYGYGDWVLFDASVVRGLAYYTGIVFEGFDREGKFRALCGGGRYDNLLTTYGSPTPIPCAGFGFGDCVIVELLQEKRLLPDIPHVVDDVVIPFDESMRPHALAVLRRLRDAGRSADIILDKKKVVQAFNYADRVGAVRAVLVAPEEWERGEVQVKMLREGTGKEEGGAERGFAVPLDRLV
UniProt P9WFT3, whole entry: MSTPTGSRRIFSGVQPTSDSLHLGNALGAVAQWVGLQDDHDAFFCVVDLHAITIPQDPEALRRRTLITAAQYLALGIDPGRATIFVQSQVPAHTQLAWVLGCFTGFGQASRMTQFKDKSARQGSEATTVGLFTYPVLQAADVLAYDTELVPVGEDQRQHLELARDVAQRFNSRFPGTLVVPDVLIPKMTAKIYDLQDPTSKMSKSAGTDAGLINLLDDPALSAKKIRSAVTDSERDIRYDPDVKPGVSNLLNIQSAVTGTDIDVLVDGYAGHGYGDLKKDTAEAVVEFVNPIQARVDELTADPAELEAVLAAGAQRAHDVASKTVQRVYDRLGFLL
UniProt I6X8D2, whole entry: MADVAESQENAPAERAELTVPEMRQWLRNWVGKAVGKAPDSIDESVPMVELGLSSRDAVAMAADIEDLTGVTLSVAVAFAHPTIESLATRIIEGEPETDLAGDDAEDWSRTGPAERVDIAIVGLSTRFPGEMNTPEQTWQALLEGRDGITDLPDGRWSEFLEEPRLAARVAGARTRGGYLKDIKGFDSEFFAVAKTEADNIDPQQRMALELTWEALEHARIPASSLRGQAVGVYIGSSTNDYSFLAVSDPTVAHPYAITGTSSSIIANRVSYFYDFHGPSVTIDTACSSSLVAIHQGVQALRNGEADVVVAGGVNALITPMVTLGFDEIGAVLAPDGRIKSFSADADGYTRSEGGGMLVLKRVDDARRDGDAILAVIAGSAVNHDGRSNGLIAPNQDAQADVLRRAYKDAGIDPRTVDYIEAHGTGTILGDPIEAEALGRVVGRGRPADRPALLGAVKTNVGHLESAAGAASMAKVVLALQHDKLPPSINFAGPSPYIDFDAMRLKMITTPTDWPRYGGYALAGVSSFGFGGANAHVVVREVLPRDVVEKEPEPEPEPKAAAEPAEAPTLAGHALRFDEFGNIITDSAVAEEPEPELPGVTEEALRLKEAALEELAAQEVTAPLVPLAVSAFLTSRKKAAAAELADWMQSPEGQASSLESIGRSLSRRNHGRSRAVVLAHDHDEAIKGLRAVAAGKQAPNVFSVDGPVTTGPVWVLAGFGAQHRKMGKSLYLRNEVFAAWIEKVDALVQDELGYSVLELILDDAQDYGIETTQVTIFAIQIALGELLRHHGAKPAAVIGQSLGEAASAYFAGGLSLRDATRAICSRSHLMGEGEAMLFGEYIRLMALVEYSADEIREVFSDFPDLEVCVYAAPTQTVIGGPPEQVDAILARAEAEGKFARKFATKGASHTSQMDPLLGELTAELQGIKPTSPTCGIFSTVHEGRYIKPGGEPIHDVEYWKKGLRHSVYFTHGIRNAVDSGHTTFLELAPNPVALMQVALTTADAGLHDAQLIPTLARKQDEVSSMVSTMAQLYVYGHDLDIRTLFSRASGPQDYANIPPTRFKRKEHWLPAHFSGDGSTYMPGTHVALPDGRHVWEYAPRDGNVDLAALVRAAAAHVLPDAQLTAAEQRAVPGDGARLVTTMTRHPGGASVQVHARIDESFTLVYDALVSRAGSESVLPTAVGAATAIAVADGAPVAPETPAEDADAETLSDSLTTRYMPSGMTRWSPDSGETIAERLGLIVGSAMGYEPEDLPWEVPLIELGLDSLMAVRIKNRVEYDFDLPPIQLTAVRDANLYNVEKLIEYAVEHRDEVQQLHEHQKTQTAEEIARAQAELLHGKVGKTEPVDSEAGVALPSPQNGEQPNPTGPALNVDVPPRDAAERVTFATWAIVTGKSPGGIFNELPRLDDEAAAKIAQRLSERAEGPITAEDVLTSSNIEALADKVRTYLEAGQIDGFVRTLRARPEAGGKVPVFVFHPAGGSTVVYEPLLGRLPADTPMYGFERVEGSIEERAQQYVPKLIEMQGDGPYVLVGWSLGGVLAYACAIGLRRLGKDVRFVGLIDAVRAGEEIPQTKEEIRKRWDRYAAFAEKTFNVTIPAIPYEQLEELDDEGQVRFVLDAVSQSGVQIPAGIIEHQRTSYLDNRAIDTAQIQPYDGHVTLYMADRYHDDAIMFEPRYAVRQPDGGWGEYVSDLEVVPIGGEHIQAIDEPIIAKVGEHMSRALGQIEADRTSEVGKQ
UniProt Q8IDJ8, 1-583: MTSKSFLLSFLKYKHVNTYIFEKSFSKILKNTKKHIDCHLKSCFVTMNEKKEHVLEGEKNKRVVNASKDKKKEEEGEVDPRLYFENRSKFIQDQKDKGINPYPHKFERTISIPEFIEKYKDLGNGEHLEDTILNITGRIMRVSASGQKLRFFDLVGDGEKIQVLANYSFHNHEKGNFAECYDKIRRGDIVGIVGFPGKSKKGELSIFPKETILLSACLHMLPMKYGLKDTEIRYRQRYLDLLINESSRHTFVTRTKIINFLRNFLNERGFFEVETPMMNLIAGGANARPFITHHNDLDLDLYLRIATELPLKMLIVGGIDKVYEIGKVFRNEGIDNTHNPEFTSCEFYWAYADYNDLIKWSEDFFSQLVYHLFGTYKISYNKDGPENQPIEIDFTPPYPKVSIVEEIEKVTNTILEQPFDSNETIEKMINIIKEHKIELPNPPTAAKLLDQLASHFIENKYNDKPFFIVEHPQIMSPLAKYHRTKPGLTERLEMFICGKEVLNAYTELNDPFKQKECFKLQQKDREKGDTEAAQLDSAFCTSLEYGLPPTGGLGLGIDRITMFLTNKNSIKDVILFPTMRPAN

The values are deposited in ChEMBL (CHEMBL3988442, “University of Dundee, Small-Polar-MMV Screening Library” (2021)).

The filed quantity is “Percent Effect” (%). The record does not define 0% and 100%; most values in the screen are far below 50% and negative numbers occur (in some assays of this library far below -100). This is an unselected part of the compounds tested.

A: 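Enzyme assay of histidyl-tRNA synthetase; the read-out is not stated. Target: Histidine-tRNA ligase, Trypanosoma cruzi CL Brener (UniProt Q4DA54). Compounds at 30 µM. Direction is inferred from retests: higher values go with stronger inhibition. Size under these conditions: about 69,000 compounds, about 31 of them at 50% or above in at least one test.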
B: 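Enzyme assay of tryptophanyl-tRNA synthetase; the read-out is not stated. Target: Tryptophan-tRNA ligase, Mycobacterium tuberculosis (UniProt P9WFT3). Compounds at 10 µM. Direction is not recorded; retested compounds ran higher, which suggests that high means inhibition. Of about 65,000 compounds tested this way, about 64 (0.098%) reached 50% or more in at least one test.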
C: 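Enzyme assay of the thioesterase domain of polyketide synthase 13; the read-out is not stated. Target: Polyketide synthase Pks13, Mycobacterium tuberculosis (UniProt I6X8D2). Compounds at 30 µM. The record gives no direction; the compounds picked for IC50 retests had high values, so higher reads as stronger inhibition. About 67,000 compounds were tested under these conditions; 0.46% (about 300) showed 50% or more at least once.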
D: 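Enzyme assay of the cytosolic lysyl-tRNA synthetase in 384-well plates, read by luminescence. Target: Lysine-tRNA ligase, Plasmodium falciparum 3D7 (UniProt Q8IDJ8). Tested at 30 µM. Higher reads as stronger inhibition, judged from the few compounds that gave an IC50. Size under these conditions: about 69,000 compounds, about 49 of them at 50% or above in at least one test.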
E: 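Assay of Toxoplasma gondii numbers, read through their beta-galactosidase reporter with a colour substrate. Compounds at 10 µM. Higher reads as fewer parasites (inferred from which compounds were picked for retests). About 67,000 compounds were tested under these conditions; 0.38% (about 260) showed 50% or more at least once.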

* CN(C)C1CCN(C(=O)CCc2cc(Br)cs2)CC1 | A: -1.734%; B: -2.034%; C: -18.12%; D: -0.3896%; E: -4.688%
* Cc1ccc(N2CCCC(NCc3nc(C)c(C)o3)C2)nn1 (configuration not stated) | A: -1.88%; B: -3.996%; C: -7.231%; D: -0.3629%; E: 4.781%
* CCC(N)C(=O)N1CCC(OCc2ccc(Cl)c(Cl)c2)CC1 (configuration not stated) | A: 6.931%; B: -1.872%; C: 0.2301%; D: 0.381%
* CCc1cc(NCCCC2CCOC2)n2nccc2n1 (configuration not stated) | A: 7.853%; B: -9.356%; C: -20.27%; D: 3.11%; E: -8.012%
* COc1ccccc1CNCCc1cccc(C(N)=O)c1 | A: 10.34%; B: -12.33%; C: -10.81%; D: 2.055%; E: -0.268%
* CCn1cc(C(=O)NCC(C)(CC)N2CCOCC2)c2ccccc21 (configuration not stated) | A: -3.061%; B: -0.8081%; C: -15.73%; D: 1.521%; E: 14.08%
* Cc1ccsc1CNC(=O)c1ccc2c(c1)CCC(=O)N2 | A: 9.392%; B: -1.342%; C: -0.07541%; D: -6.297%; E: 1.652%
* Cc1cnc(C(=O)N[C@H]2CN(CCS(C)(=O)=O)C[C@@H]2C2CC2)cn1 | A: -0.5952%; B: -5.44%; C: -0.3782%; D: -3.203%; E: -1.42%
* CNc1nc(C)c(C(=O)N2CCCCC2CCc2ccccc2)s1 (configuration not stated) | A: 4.233%; B: -4.34%; C: -151.7%; D: 4.764%; E: -10.68%
* O=C(O)C(F)(F)F.O=C(O)C(F)(F)F.O=C(c1cccnc1)N1CC[C@H](OCC2CC2)[C@@H]1Cc1cccnc1 | E: 1.923%
* COc1ncccc1C(=O)N1CCCC(n2ccnc2C)C1 (configuration not stated) | A: 0%; B: -5.598%; C: -7.826%; D: 2.136%; E: 16.76%
* COc1cccc(Nc2nc(C3CCCNC3)c3ccccn23)c1.Cl (configuration not stated) | E: 16.03%
* O=C(O)C(F)(F)F.O=C(O)C(F)(F)F.[H][C@@]12CN(Cc3ccccc3)C[C@]1([H])C(=O)N(CCN1CCCC1)C2 | E: 2.774%
* CN(Cc1cccnc1)CC1(O)CCCN(CC(C)(C)C)C1=O (configuration not stated) | A: -4.018%; B: 0%; C: -7.727%; D: 1.839%; E: 32.86%
* CN1CCO[C@@H]2CN(C(=O)Cc3cccs3)CC[C@@H]2C1 | A: 2.116%; C: 2.491%; D: 0.7712%
* CC(=O)N1CC(=O)N(c2cnn(C)c2)CC12CCN(Cc1cccs1)C2 (configuration not stated) | A: 2.404%; B: -5.473%; C: -7.277%; D: -0.2067%
* CC(=O)N1CCN(C(=O)Cc2cnc(-c3c(Cl)cccc3Cl)s2)CC1 | A: 0.9901%; B: 1.877%; C: 6.1%; D: -6.613%; E: -9.612%
* NC(=O)CN1CCCN(C(=O)Cc2ccc3ccccc3c2)CC1 | A: 6.415%; B: -2.787%; C: -7.661%; D: 1.806%; E: 9.734%
* COc1ccccc1C(=O)N1CC(=O)N(Cc2ccco2)CC(O)C1 (configuration not stated) | A: 6.742%; C: 3.035%; D: 5.086%; E: -11.58%
* [H][C@@]12COC[C@@H](CC(=O)NCCOC)[C@]1([H])CN(C(=O)C1CCOCC1)C2 | E: 3.057%
* NC(=O)c1ccc(OCC(=O)NS(=O)(=O)c2ccc3c(c2)CCC3)cc1 | A: 3.812%; B: -2.674%; C: -17.91%; D: -0.328%; E: 6.495%
* CN(C)C(=O)c1cc(NC(=O)N2CCCC(C(F)(F)F)C2)ccn1 (configuration not stated) | A: 7.368%; B: -6.017%; C: -15.4%; D: 3.99%; E: -19%
* CCOc1cc(F)ccc1NC(=O)N(C(C)CS(C)(=O)=O)C1CC1 (configuration not stated) | A: 1.724%; B: -1.141%; C: -3.56%; D: 6.313%; E: -1.765%

Some entries from above, unchanged:

* CN(C)C1CCN(C(=O)CCc2cc(Br)cs2)CC1 : A: -1.734%; B: -2.034%; C: -18.12%; D: -0.3896%; E: -4.688%
* O=C(O)C(F)(F)F.O=C(O)C(F)(F)F.O=C(c1cccnc1)N1CC[C@H](OCC2CC2)[C@@H]1Cc1cccnc1 : E: 1.923%
* COc1ncccc1C(=O)N1CCCC(n2ccnc2C)C1 (configuration not stated) : A: 0%; B: -5.598%; C: -7.826%; D: 2.136%; E: 16.76%